PubChem BioAssay AID1259331 | Drosophila RNAi Screening Center | 2017
In all, the deposit lists about 3,100 reagents; this is a random part of them. 126 of them (4.1%) count as active. 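Calls are per reagent; zinc was so toxic that few knock-downs lowered ATP further, so most hits raise ATP.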 Raw values vary from plate to plate and are shown uncorrected. The numbers tell different reagents against one gene apart. A plus sign joins genes that one reagent is predicted to hit. The record does not give: the amount of reagent.

Purpose: 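Genes whose knock-down changes cell survival under toxic zinc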 (primary screen)
Cell system: Drosophila S2R+ cells
Knock-down reagent: long dsRNA against Drosophila genes
Time to read-out: 5 days (4 days knock-down, then 1 day zinc)
Treatment: zinc chloride at 15 mM final level for 1 day
Measured: 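Total cellular ATP measured by luciferase luminescence as a viability proxy, turned into Z scores from three plate copies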
Direction: mean Z score: higher = more ATP than other wells, better survival under zinc; ATP luminescence: higher = more ATP, more viable cells
Call rule: 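Hit when the absolute Z score is greater than 1.5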
Calls: active = hit, ATP up or down; inactive = not a hit

| predicted target | reagent | mean Z score | ATP luminescence, replicate 1 | ATP luminescence, replicate 2 | activity call |
| --- | --- | --- | --- | --- | --- |
| Grd | 1 | -0.15 | 75415 | 57425 | inactive |
| Grd | 2 | -0.789 | 46983 | 51509 | inactive |
| lili | 1 | 0.299 | 50575 | 47411 | inactive |
| lili | 2 | 0.872 | 84695 | 64782 | inactive |
| Sh | 1 | 0.428 | 46657 | 52538 | inactive |
| Sh | 2 | -0.222 | 28879 | 31673 | inactive |
| Sh | 3 | 1.01 | 72140 | 68434 | inactive |
| CG9855 | 1 | -0.566 | 26291 | 27422 | inactive |
| GPHR | 1 | -0.163 | 62998 | 70767 | inactive |
| GPHR | 2 | -0.16 | 55373 | 57607 | inactive |
| Pex3 | 1 | -0.164 | 31450 | 31266 | inactive |
| Elo68beta | 1 | -0.372 | 71453 | 50755 | inactive |
| GABPI | 1 | -0.402 | 48081 | 53173 | inactive |
| GABPI | 2 | -0.488 | 47076 | 43417 | inactive |
| Slc45-1 | 1 | -0.422 | 67526 | 55736 | inactive |
| mri | 1 | -0.468 | 27919 | 27889 | inactive |
| mri | 2 | -0.0406 | 62381 | 49366 | inactive |
| CG33635 | 1 | -0.0585 | 43571 | 40582 | inactive |
| fj | 1 | -0.179 | 69498 | 70287 | inactive |
| fj | 2 | -0.973 | 56602 | 38308 | inactive |
| CG15279 | 1 | 0.0331 | 53910 | 59637 | inactive |
| CG15279 | 2 | -0.661 | 53533 | 52549 | inactive |
| CG12783 | 1 | 0.0196 | 44222 | 55299 | inactive |
| Or59a | 1 | -0.836 | 39266 | 36079 | inactive |
| Or59a | 2 | -0.141 | 48697 | 60119 | inactive |
| kek2 | 1 | 0.841 | 60306 | 36911 | inactive |
| kek2 | 2 | -0.146 | 51801 | 54287 | inactive |
| Tsp5D | 1 | -0.82 | 51749 | 53173 | inactive |
| Tsp5D | 2 | -0.309 | 56379 | 54287 | inactive |
| ppk3 | 1 | 0.22 | 47720 | 37136 | inactive |
| ppk3 | 2 | 0.217 | 68109 | 51372 | inactive |
| Tnpo-SR | 1 | 1.43 | 74506 | 78482 | inactive |
| Tnpo-SR | 2 | 1.04 | 56276 | 62038 | inactive |
| Gr85a | 1 | -0.0147 | 35496 | 58094 | inactive |
| Gr85a | 2 | -0.695 | 53381 | 44325 | inactive |
| Oatp33Eb | 1 | -0.55 | 44394 | 41668 | inactive |
| Oatp33Eb | 2 | -0.412 | 51304 | 54004 | inactive |
| CG16736 | 1 | -0.217 | 38591 | 55642 | inactive |
| CG30339 | 1 | 0.0809 | 43638 | 46074 | inactive |
| CG8389 | 1 | -0.0881 | 47600 | 43982 | inactive |
| CG8389 | 2 | 0.169 | 58866 | 69237 | inactive |
| nAChRalpha1 | 1 | -0.609 | 66789 | 49674 | inactive |
| nAChRalpha1 | 2 | -0.429 | 36370 | 51767 | inactive |
| CG43672 + CG43673 | 1 | 0.308 | 66634 | 75776 | inactive |
| CG43672 + CG43673 | 2 | -0.14 | 59720 | 67818 | inactive |
| Gr43a | 1 | -0.0615 | 73786 | 69944 | inactive |
| Gr43a | 2 | -0.305 | 55213 | 55165 | inactive |
| Ykt6 | 1 | 0.599 | 62604 | 66994 | inactive |
| CG9981 | 1 | 0.19 | 70956 | 67406 | inactive |
| sev | 1 | -0.355 | 66753 | 53447 | inactive |
| sev | 2 | -0.144 | 44462 | 46159 | inactive |
| sev | 3 | 0.705 | 66736 | 50566 | inactive |
| clumsy | 1 | -0.128 | 48046 | 44411 | inactive |
| CG1607 | 1 | -0.316 | 40896 | 42297 | inactive |
| CG1607 | 2 | 0.227 | 65714 | 59637 | inactive |
| Gr59d | 1 | 0.352 | 49383 | 53121 | inactive |
| Gr59d | 2 | -0.196 | 57035 | 61935 | inactive |
| CG6836 | 1 | -0.529 | 27285 | 29050 | inactive |
| CG6836 | 2 | -0.103 | 61232 | 53618 | inactive |
| SMSr | 1 | 0.0532 | 81882 | 57700 | inactive |
| CG3164 | 1 | -0.278 | 41702 | 43759 | inactive |
| Grl36a | 1 | -0.0116 | 46811 | 44360 | inactive |
| Rdl | 1 | -0.419 | 29685 | 27610 | inactive |
| Rdl | 2 | 0.18 | 67252 | 63479 | inactive |
| Alg12 | 1 | -0.217 | 34489 | 56756 | inactive |
| Alg12 | 2 | -0.473 | 44548 | 54853 | inactive |
| sing + Axs | 1 | -0.318 | 42131 | 41431 | inactive |
| sing + Axs | 2 | -0.135 | 48063 | 60958 | inactive |

11 consecutive records from above:
| predicted target | reagent | mean Z score | ATP luminescence, replicate 1 | ATP luminescence, replicate 2 | activity call |
| --- | --- | --- | --- | --- | --- |
| sev | 2 | -0.144 | 44462 | 46159 | inactive |
| sev | 3 | 0.705 | 66736 | 50566 | inactive |
| clumsy | 1 | -0.128 | 48046 | 44411 | inactive |
| CG1607 | 1 | -0.316 | 40896 | 42297 | inactive |
| CG1607 | 2 | 0.227 | 65714 | 59637 | inactive |
| Gr59d | 1 | 0.352 | 49383 | 53121 | inactive |
| Gr59d | 2 | -0.196 | 57035 | 61935 | inactive |
| CG6836 | 1 | -0.529 | 27285 | 29050 | inactive |
| CG6836 | 2 | -0.103 | 61232 | 53618 | inactive |
| SMSr | 1 | 0.0532 | 81882 | 57700 | inactive |
| CG3164 | 1 | -0.278 | 41702 | 43759 | inactive |
